Laboratory results reported in patent publication US9844519B1, “Method of treating TDP-43 proteinopathies using hexachlorophene” (University of South Florida, priority 2014, dated 2017).

The chains behind the UniProt entries cited, without tags or fusion partners.
UniProt Q921F2, whole entry: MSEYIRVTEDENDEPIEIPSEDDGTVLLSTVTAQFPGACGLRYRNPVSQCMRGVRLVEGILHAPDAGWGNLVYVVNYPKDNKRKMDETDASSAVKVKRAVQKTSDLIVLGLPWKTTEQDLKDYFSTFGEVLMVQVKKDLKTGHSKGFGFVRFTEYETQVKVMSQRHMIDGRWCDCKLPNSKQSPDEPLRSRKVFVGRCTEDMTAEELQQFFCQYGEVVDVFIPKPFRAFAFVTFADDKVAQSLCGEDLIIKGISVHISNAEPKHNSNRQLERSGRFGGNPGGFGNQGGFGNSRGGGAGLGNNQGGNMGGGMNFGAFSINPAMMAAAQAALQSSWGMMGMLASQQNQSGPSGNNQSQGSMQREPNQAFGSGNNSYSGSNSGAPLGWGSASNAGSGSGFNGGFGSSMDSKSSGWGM

Target: T1, TDP-43 (Mus musculus, UniProt Q921F2)
T1 construct: N9 cells expressing endogenous TDP-43 were treated with various concentrations of B10; endogenous in cells; host or cells: N9 mouse microglial cells
Assay: InCell Western (ICW) drug screen for TDP-43 levels in N9 cells
Assay type: cell-based
Settings: N9 cells treated 24 hours, DMSO vehicle control = 100
Description: To optimize the ICW technique for screening TDP-43 targeting drugs, N9 cells were seeded in a 96-well plate and processed for ICW by using various dilution of TDP-43 antibody. TDP-43 antibody, used at a dilution of 1:1000, provided sufficient signal for detection (FIG. 1A).
For drug screening, N9 cells were treated with a panel of candidate drug molecules for 24 hours and the effect on TDP-43 levels was analyzed using the InCell Western assay. […] Based on its effect on TDP-43 levels, B10 was chosen was further analysis.
To optimize TDP-43 targeting ICW, N9 cells were seeded in a 96-well plate and probed with different dilutions of TDP-43 antibody as previously described (Jinwal and Dickey, 2011). For the identification of candidate drug molecules, N9 cells were treated with an array of drugs for 24 hours and processed for ICW (Jinwal and Dickey, 2011). In brief, cells were fixed, washed with PBS and incubated in blocking buffer. Cells were then incubated in primary antibody to TDP-43 (1:1000) and GAPDH (1:3000) for overnight. After washing with 0.2% Tween-20 PBS, cells were incubated with fluorescently tagged secondary antibodies for 1 hour and 30 minutes. Fluorescence intensity was then recorded and quantified using the Odyssey Infrared Imaging System (LI-COR). ICW experiments were performed in duplicate.

% TDP43 level: 115%
SMILES: CCN(CC)CCOC(=O)C1(C2CCCCC2)CCCCC1 [B9, Dicyclomine]
